# Measurements reported in patent publication US7227020B2, “Azaindoles” (Aventis Pharma Limited, priority 1999, dated 2007).
# At least one structure is not confirmed: it was looked up by name or label, or the drawing left a doubt.
# Test system: Brown Norway rats
# Assay: Acute antigen induced bronchoconstriction in the allergic rat
# Assay type: in vivo
# Conditions: p.o. or i.p. 24 and 2 hours before iv ovalbumin; 10–100 mg/kg
smiles,measurement,value
CCCC1O[C@@H]2C[C@H]3[C@@H]4CCC5=CC(=O)C=C[C@]5(C)[C@H]4[C@@H](O)C[C@]3(C)[C@]2(C(=O)CO)O1 (stereo partly shown) [budesonide],antigen-induced bronchoconstriction (airway resistance over baseline),significant increase in the airway resistance over baseline
